Measurements published in paper PMC4245888 (Frontiers in Pharmacology, 2014).
Values joined by “and” are separate entries in the source; they are usually repeats but may differ in a detail not shown here. Identical values can stand only once.

Experiments:
[1] = Pharmacokinetics of ATO in plasma, single-dose three-period crossover study, ATO alone vs ATO–EZE combination; type: in vivo; settings: both sexes, human, po, 80 mg
[2] = cited from earlier work

AUC(0-inf) [1]: 87.4 ± 40.5 ng·h/mL
AUC(0-t) [1]: 76 ± 36.1 ng·h/mL
Cmax [1]: 18.8 ± 8.89 ng/mL
Tmax [1]: 2.08 ± 1.41 h
SMILES: CC(C)c1c(C(=O)Nc2ccccc2)c(-c2ccccc2)c(-c2ccc(F)cc2)n1CC[C@@H](O)C[C@@H](O)CC(=O)O [ATO, Atorvastatin]
AUC0-t of ATO ([2]; after 80 mg dose, ref Jacobson, 2004): 102 to 134 ng·h/mL
Cmax of ATO ([2]; after doses of 20 and 40 mg of ATO, ref Lennernäs (2003)): 6.9 ng/mL and 12.7 ng/mL
time to maximum plasma concentrations of ATO ([2]; following oral administration, ref Pfizer Inc. Lipitor®, 2009): 1 to 2 h
